PubChem BioAssay AID1224829 | NIAID | 2016
Purpose: 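Secondary check of hits that alter LPS-induced p65 translocation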 (follow-up of hits). Cells: mouse RAW264.7 G9 macrophage reporter cells. Reagents: single siRNA against mouse genes, 100 nM. Timing: 2 days of siRNA knock-down, then 40 min of LPS before fixing. Conditions: LPS (Salmonella minnesota R595) at 10 ng/ml. Measured: 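High-content images after 40 min LPS exposure; GFP-p65 nucleus to surrounding ring signal ratio, normalised to plate median and non-targeting control wells, expressed as z-score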. Direction: p65 translocation z-score and gene median z-score, per vendor: higher = more nuclear NF-kappaB p65 after LPS. Active means: 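Active means the replicate-mean z-score lies beyond plus or minus 2, in either direction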. Meaning of the calls: active = changed p65 translocation (either direction); inactive = no clear change.
Here is an unselected part of about 3,800 deposited reagents. 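Calls cover raised and lowered translocation; gene median uses one vendor's three siRNAs; qiagen siRNAs acted more weakly than ambion siRNAs.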

no.	target gene	PubChem SID	siRNA vendor or control pool	p65 translocation z-score, replicate mean	p65 translocation z-score, replicate 1	p65 translocation z-score, replicate 2	gene median z-score, per vendor	outcome
1	A730013G03Rik	SID315488940	ambion single siRNA	-2	-1.83	-2.17	-0.888	active
2	A730013G03Rik	SID315488941	ambion single siRNA	2.86	4.02	1.69	-0.888	active
3	A730013G03Rik	SID315488942	ambion single siRNA	-1.04	0.0578	-2.14	-0.888	inactive
4	A730013G03Rik	SID315488943	qiagen single siRNA	1.38	0.696	2.05	0.303	inactive
5	A730013G03Rik	SID315488944	qiagen single siRNA	0.803	-0.0901	1.7	0.303	inactive
6	A730013G03Rik	SID315488945	qiagen single siRNA	-1.49	-1.47	-1.52	0.303	inactive
7	Gsta3	SID315484239	ambion single siRNA	-0.473	0.729	-1.68	0.639	inactive
8	Gsta3	SID315484240	ambion single siRNA				0.639	inactive
9	Gsta3	SID315484241	ambion single siRNA	2.09	3.63	0.548	0.639	active
10	Gsta3	SID315484242	qiagen single siRNA	0.339	0.0358	0.643	0.203	inactive
11	Gsta3	SID315484243	qiagen single siRNA	0.308	-0.053	0.669	0.203	inactive
12	Gsta3	SID315484244	qiagen single siRNA	0.0936	-0.183	0.371	0.203	inactive
13	Prkd2	SID315487431	ambion single siRNA	-1.52	-2.49	-0.553	-1.52	inactive
14	Prkd2	SID315487432	ambion single siRNA	2.71	3.45	1.96	-1.52	active
15	Prkd2	SID315487433	ambion single siRNA	-3.78	-3.96	-3.6	-1.52	active
16	Prkd2	SID315487434	qiagen single siRNA	-0.805	-1.11	-0.495	-3.46	inactive
17	Prkd2	SID315487435	qiagen single siRNA	-3.46	-3.46		-3.46	active
18	Prkd2	SID315487436	qiagen single siRNA	-4.21	-3.72	-4.69	-3.46	active
19	Mrpl33	SID315486402	ambion single siRNA	0.257	-0.752	1.27	-1.43	inactive
20	Mrpl33	SID315486403	ambion single siRNA	-1.43	-0.896	-1.97	-1.43	inactive
21	Mrpl33	SID315486404	ambion single siRNA	-7.25	-7.96	-6.54	-1.43	active
22	Mrpl33	SID315486405	qiagen single siRNA	1.83	1.17	2.49	0.38	inactive
23	Mrpl33	SID315486406	qiagen single siRNA	-0.146	-1.86	1.57	0.38	inactive
24	Mrpl33	SID315486407	qiagen single siRNA	-0.88	-1.35	-0.411	0.38	inactive
